Results deposited as PubChem BioAssay AID1224826 (NIAID, 2016).
Screen: 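Genes that change LPS-induced Tnf promoter activity in mouse macrophages when knocked down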 (primary screen). Cell system: RAW264.7 G9 macrophages from mouse bearing reporters for p65 (GFP) and the Tnf promoter (mCherry). Knock-down reagent: siRNA pool against mouse genes, 100 nM. Duration: 16 h of LPS stimulation, after 2 days of siRNA transfection. Treatment: bacterial lipopolysaccharide (Salmonella minnesota R595), 10 ng/ml. Detection: 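Nuclear mCherry signal of the Tnf promoter reporter measured by imaging after background removal, scaled to each plate median and turned into robust z-scores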. Direction: Tnf reporter robust z-score: higher = stronger Tnf promoter reporter signal after LPS. Call rule: 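Called active when robust z-score is at most -1.3, matching the median of the Tlr4 knock-down control, or over 3; control wells and wells with under 50 cells never active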. Calls: active = Tnf reporter clearly lowered or raised; inactive = no clear change in Tnf reporter.
In all, the deposit lists about 17,000 reagents; shown is a random part of them. In the full data, about 1,110 (6.6%) were called active. 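Active means lowered or raised reporter signal; replicate intensities are raw and not normalised per plate.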 Not all columns of the deposit are shown. Reagent sequences are not shown.

With knock-down of Adam22 (a disintegrin and metallopeptidase domain 22), the record shows Tnf reporter robust z-score -0.73; fewer than 50 cells in well enough cells in well; inactive.
Sh2b3 (SH2B adaptor protein 3) gave Tnf reporter robust z-score 0.19; fewer than 50 cells in well enough cells in well; inactive.
1700012A03Rik (RIKEN cDNA 1700012A03 gene) gave fewer than 50 cells in well fewer than 50 cells per well; well left out of calls; inactive.
Depletion of Acr (acrosin prepropeptide) resulted in: Tnf reporter robust z-score -0.16; fewer than 50 cells in well enough cells in well; inactive.
C1qa (complement component 1, q subcomponent, alpha polypeptide) gave Tnf reporter robust z-score 2.1; fewer than 50 cells in well enough cells in well; inactive.
With knock-down of Hspa2 (heat shock protein family A (Hsp70) member 2), the record shows Tnf reporter robust z-score -0.24; fewer than 50 cells in well enough cells in well; inactive.
With knock-down of 3110070M22Rik (RIKEN cDNA 3110070M22 gene) the results were fewer than 50 cells in well fewer than 50 cells per well; well left out of calls; inactive.
For Pramel1 (PRAME like 1), the values are Tnf reporter robust z-score -0.05; fewer than 50 cells in well enough cells in well; inactive.
Against Ppan (peter pan homolog), the values are Tnf reporter robust z-score -0.72; fewer than 50 cells in well enough cells in well; inactive.
Wdr12 (WD repeat domain 12) scored Tnf reporter robust z-score 0.46; fewer than 50 cells in well enough cells in well; inactive.
Adck1 (aarF domain containing kinase 1) gave Tnf reporter robust z-score 1.6; fewer than 50 cells in well enough cells in well; inactive.
Srpra (signal recognition particle receptor alpha) scored Tnf reporter robust z-score -0.72; fewer than 50 cells in well enough cells in well; inactive.
Or5w1b (olfactory receptor family 5 subfamily W member 1B) gave Tnf reporter robust z-score -0.95; fewer than 50 cells in well enough cells in well; inactive.
Silencing of Ccl3 (C-C motif chemokine ligand 3) resulted in: Tnf reporter robust z-score -0.26; fewer than 50 cells in well enough cells in well; inactive.
Silencing of Tipin (timeless interacting protein) came out at: Tnf reporter robust z-score -0.34; fewer than 50 cells in well enough cells in well; inactive.
Silencing of Or2h2c (olfactory receptor family 2 subfamily H member 2C) resulted in: Tnf reporter robust z-score 0.35; fewer than 50 cells in well enough cells in well; inactive.
Knock-down of Dync1i2 (dynein cytoplasmic 1 intermediate chain 2) resulted in: Tnf reporter robust z-score -0.89; fewer than 50 cells in well enough cells in well; inactive.
Against Adgra3 (adhesion G protein-coupled receptor A3) the deposit lists Tnf reporter robust z-score -0.04; fewer than 50 cells in well enough cells in well; inactive.
Knock-down of Slc39a3 came out at: fewer than 50 cells in well fewer than 50 cells per well; well left out of calls; inactive.
Bin3 (bridging integrator 3) scored Tnf reporter robust z-score 0.05; fewer than 50 cells in well enough cells in well; inactive.
With knock-down of Rpp25l (ribonuclease P/MRP 25 subunit-like) the results were fewer than 50 cells in well fewer than 50 cells per well; well left out of calls; inactive.

Part of the list above in another layout.
target,Tnf reporter robust z-score,fewer than 50 cells in well,outcome
Or2h2c (olfactory receptor family 2 subfamily H member 2C),0.35,enough cells in well,inactive
Dync1i2 (dynein cytoplasmic 1 intermediate chain 2),-0.89,enough cells in well,inactive
